For this experiment, the target named is Sup35 translation termination factor tagged at its C-terminus with a tandem affinity purification (TAP) tag (S. cerevisiae) (UniProt P05453). The experiment can be described thus: co-IP; Sup35-TAP immunoprecipitated from wild-type and tsa1 tsa2 mutant extracts; immunoblot with antibodies against Abp1, Arp3, Sap190 and Act1. For orientation: In western blotting, separated proteins are transferred to a membrane and probed.

Amino acid sequences for entries named in this document (tags omitted).
UniProt P47117: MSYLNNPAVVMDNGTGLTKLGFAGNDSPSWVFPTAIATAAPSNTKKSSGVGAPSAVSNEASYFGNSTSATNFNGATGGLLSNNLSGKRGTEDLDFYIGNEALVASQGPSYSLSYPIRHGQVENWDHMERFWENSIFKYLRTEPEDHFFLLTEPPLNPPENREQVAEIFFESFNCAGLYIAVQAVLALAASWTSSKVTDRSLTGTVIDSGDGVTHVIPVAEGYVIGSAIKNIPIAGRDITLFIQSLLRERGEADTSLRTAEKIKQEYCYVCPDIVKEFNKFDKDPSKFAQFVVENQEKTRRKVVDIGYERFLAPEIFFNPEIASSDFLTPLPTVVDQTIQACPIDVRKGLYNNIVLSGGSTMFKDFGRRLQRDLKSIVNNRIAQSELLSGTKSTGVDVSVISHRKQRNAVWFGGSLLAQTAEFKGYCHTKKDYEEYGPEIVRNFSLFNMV

No constants are given. Whether binding was seen depends on the method and setting. Binding seen in cells or lysates may run through a third protein. Some results given as binding are weak or reduced against the parent protein; the word gives no strength.

For the substance “Act1 (from UniProt P60010 1-375) (other; other documents disagree on this pair)”, the binding entry is reported as “binds”.

Take Arp3 (from UniProt P47117 1-449): the binding result was “binds”.

Values taken from publication PMC5393896.
